This is an account of results in US11987583B2, “Fused triazolo-pyrimidine compounds having useful pharmaceutical application” (PIKSci Inc., priority 2017, dated 2024).

Molecules are shown by their SMILES.

The subject of this assay is multiple myeloma KMS12E, Non-hodgkin's lymphoma SU-DHL4, T-cell lymphoma Hut-78. Briefly: Cell viability (Presto Blue), panel of cancer cell lines. Type of assay: cell-based. To be noted: Homo sapiens; range over KMS12E, SU-DHL4, Hut-78 and normal PBMCs; 70 hours; read-out: IC50, viability of all cell types. The method, then: Three cancer cell lines, multiple myeloma KMS12E, Non-hodgkin's lymphoma SU-DHL4, T-cell lymphoma Hut-78, and normal human peripheral blood mononuclear cells derived from healthy individual were tested. The cells were plated in 384 well plates in RPMI medium supplemented with 10% fetal bovine serum. Cancer cells were plated at 1000 cells/well and normal cells at 10,000 cells per well in a total volume of 30 uL/well. Immediately after plating, the test compounds were added at […] concentrations: 10 uM-1 uM-0.01 uM-0.001 uM, in duplicate wells for each concentration. The cells were exposed to compounds for 70 hours at 37° C. in humidified incubator with 5% CO2. Cell viability was determined by Presto Blue reagent (Thermo Scientific/Invitrogen).

In general, IC50 refers to the concentration needed to halve the response being measured. With `CCc1cnn2c(NCc3ccc[n+]([O-])c3)cc(N3CCCC[C@H]3CCO)nc12` [Dinaciclib], the concentration for half-maximal inhibition (IC50) is 10 to 15 nM.
